Measurements taken from article PMC7402526, “An in vitro quantitative systems pharmacology approach for deconvolving mechanisms of drug-induced, multilineage cytopenias” (PLoS Computational Biology, 2020).

Key:
Assay type in all cases: cell-based
[1] = test system: hematopoietic stem cells (HSCs); assay: Multi-lineage toxicity assay (MLTA), HSCs: concentration-response and QSP model fit; conditions: Homo sapiens, Hematopoietic stem cell, 144 h; QSP model fit of 6-day MLTA data
Protocol: (§1) A custom optimized cytokine cocktail was developed using commercially available cytokines (Peprotech, New Jersey) to facilitate simultaneous multi-lineage differentiation and self-renewal of freeze-thawed primary human bone marrow-derived CD34+ cells in SFEM II media (cells and media from StemCell Technologies, Vancouver). Cultures were carried out in ultra-low attachment 96-well plates (Corning, New York) with test article added on day 0 and cultured at 37°C, 85% relative humidity, and 5% CO2 for six days before interrogating drug impact via 17-parameter flow cytometry.
(§2) The flow cytometry panel used to define hematopoietic subsets was composed of CD34-PECy7, CD90-PECY5, CD38-AF488, CD371-PE, CD45Ra-BV421, CD14-BV605, CD42b-AF647, CD10-PEDazzle594, CD235a-PerCPCy5.5 (BioLegend, California), CD15-BUV395, CD41a-APCH7, CD71-BV786 (BD Biosciences, California), and DAPI for dead cell exclusion (ThermoFisher, California). In short, Day 6 cells were harvested, FcR-blocked (FcR binding inhibitor, ThermoFisher), surface-stained, then analyzed in a buffer containing TruCount Control Beads using a BD LSR Fortessa SORP fitted with a high-throughput sampler (BD Biosciences, California). Data was analyzed in Diva 6.0.2 and exported to CSV where after all cell data was transformed to cell per mL then normalized on a per-donor basis to untreated control wells to determine drug impact. […]

[2] = test system: late erythroid cells (Eryth II); assay: MLTA, ErythII: concentration-response and QSP model fit; conditions: Homo sapiens, 144 h; QSP model fit of 6-day MLTA data; read-out: EC50ErythII
Protocol: as §1, §2

granulocytes (Gran-lin) = assay: MLTA, Gran: concentration-response and QSP model fit; conditions: Homo sapiens, 144 h; QSP model fit of 6-day MLTA data
Protocol: as §1, §2

monocytes (monocyte-lin) = assay: MLTA, Mono: concentration-response and QSP model fit; conditions: Homo sapiens, 144 h, QSP model fit of 6-day MLTA data
Protocol: as §1, §2

B cells (B-lin) = assay: MLTA, B-lin: concentration-response and QSP model fit; conditions: Homo sapiens, B-cell, 144 h; QSP model fit of 6-day MLTA data
Protocol: as §1, §2

[3] = test system: early erythroid cells (Eryth I); assay: MLTA, ErythI: concentration-response and QSP model fit; conditions: Homo sapiens, 144 h; QSP model fit of 6-day MLTA data; read-out: EC50ErythI
Protocol: as §1, §2

MK cells (MK-lin) = assay: MLTA, MK: concentration-response and QSP model fit; conditions: Homo sapiens, 144 h; QSP model fit of 6-day MLTA data
Protocol: as §1, §2

[4] = test system: lymphocyte progenitors (LymP); assay: MLTA, LymP: concentration-response and QSP model fit; conditions: Homo sapiens, 144 h, QSP model fit of 6-day MLTA data
Protocol: as §1, §2

[5] = test system: neutrophils (neutrophil-lin); assay: MLTA, Neut: concentration-response and QSP model fit; conditions: Homo sapiens, 144 h, QSP model fit of 6-day MLTA data
Protocol: as §1, §2

[6] = test system: multi-potent progenitors (MPPs); assay: MLTA, MPPs: concentration-response and QSP model fit; conditions: Homo sapiens, 144 h; QSP model fit of 6-day MLTA data
Protocol: as §1, §2

EC50 [2]: 32.8 nM
EC50 (granulocytes (Gran-lin)): 168 nM
EC50 (monocytes (monocyte-lin)): 28.4 nM
EC50 (B cells (B-lin)): 41.6 nM
EC50 [3]: 25.8 nM
EC50 (MK cells (MK-lin)): 23.2 nM
EC50 [4]: 25.7 nM
EC50 [5]: 14.2 nM
EC50 [6]: 16.7 nM
Structure (SMILES): CCc1cnn2c(NCc3ccc[n+]([O-])c3)cc(N3CCCC[C@H]3CCO)nc12 [dinaciclib]
EC50 [1]: 70.7 nM
